# From patent US20100323906
# For some of these results: A negative result means that nothing was seen under these conditions. For some of these results: Where a protein sequence is shown, tags need not be part of it. For some of these results: For at least one entry, the source does not settle the construct or the ends of the probe.
# Columns and labels:
# Experiment in all cases: enzyme reaction in vitro
# Bal31 exonuclease = conditions: 5'-dithiol on upper strand, tethered to 20 nm Au nanoparticle; about 90% of 54 bp digested in 20 min; 100 nM Bal31; 10 mM MgCl2; purified native protein; protein details: Clontech
# Exo-1 (exonuclease I) = biological target: T1, Exo-1 (exonuclease I) (UniProt P04995); conditions: 5'-dithiol on upper strand, tethered to 20 nm Au nanoparticle; control exonuclease, no effect on ruler spectra (no dsDNA cleavage); purified recombinant …
# T1 sequence (looked up, limits assumed): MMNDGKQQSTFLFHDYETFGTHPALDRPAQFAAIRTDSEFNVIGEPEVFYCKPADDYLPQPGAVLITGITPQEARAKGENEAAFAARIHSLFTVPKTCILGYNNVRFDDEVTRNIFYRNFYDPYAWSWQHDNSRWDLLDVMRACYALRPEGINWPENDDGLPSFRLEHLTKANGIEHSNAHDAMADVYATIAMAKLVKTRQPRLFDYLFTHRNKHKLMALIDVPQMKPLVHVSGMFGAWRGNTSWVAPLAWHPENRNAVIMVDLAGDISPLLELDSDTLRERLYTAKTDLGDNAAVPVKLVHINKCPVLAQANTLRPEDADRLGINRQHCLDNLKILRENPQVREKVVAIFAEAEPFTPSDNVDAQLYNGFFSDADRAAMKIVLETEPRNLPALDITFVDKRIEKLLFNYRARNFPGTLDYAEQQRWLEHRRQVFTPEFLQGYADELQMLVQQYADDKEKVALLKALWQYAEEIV
# SalI = biological target: T2, SalI (UniProt Q53608); conditions: 5'-dithiol on upper strand, tethered to 20 nm Au nanoparticle; removes 18 bp from distal end; 3.5 nM enzyme; purified recombinant protein; protein details: New England Biolabs; label: FITC on 5' of lower strand
# T2 sequence (looked up, limits assumed): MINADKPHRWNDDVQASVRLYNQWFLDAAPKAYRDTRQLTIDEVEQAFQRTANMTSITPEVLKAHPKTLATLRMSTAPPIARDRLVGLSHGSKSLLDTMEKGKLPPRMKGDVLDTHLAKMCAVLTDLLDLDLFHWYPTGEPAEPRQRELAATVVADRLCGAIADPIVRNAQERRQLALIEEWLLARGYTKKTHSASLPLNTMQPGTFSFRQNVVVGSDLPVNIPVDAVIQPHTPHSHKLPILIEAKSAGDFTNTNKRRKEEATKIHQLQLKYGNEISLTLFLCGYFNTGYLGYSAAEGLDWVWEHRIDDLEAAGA
# KpnI = biological target: T3, KpnI (UniProt P25237); conditions: 5'-dithiol on upper strand, tethered to 20 nm Au nanoparticle; removes 6 bp from distal end; 3.5 nM enzyme; purified recombinant protein; protein details: New England Biolabs; label: FITC on 5' of lower strand
# T3 sequence (looked up, limits assumed): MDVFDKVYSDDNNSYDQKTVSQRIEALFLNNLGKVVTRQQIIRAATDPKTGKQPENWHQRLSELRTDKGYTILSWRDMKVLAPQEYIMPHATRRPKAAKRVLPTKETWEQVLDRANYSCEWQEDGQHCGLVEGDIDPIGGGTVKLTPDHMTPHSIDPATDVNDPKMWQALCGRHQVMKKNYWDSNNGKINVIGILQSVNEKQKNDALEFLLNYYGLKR
Sequence,activity on this sequence (Bal31 exonuclease),activity on this sequence (Exo-1 (exonuclease I)),activity on this sequence (SalI),activity on this sequence (KpnI)
AAAGGATCCAAGCTTGAATTCCTCGAGAGATCTGTCGACGATATCGGTACCAAA (double strand) [54-bp ruler dsDNA without FITC],active,not active,,
AAAGGATCCAAGCTTGAATTCCTCGAGAGATCTGTCGACGATATCGGTACCAAA (double strand) [54-bp ruler dsDNA],,,active,active
